PubChem BioAssay AID540256 (National Center for Advancing Translational Sciences (NCATS), 2011)
“And” between values parts separate entries of the source, which are not always exact repeats. Equal values may be shown once. Out of some 300,000 compounds screened, about 3,700 (1.2%) were called active. The shares of active, inactive and inconclusive entries below differ from those in the screen. Calls come from the whole dose curve; tested in HEK293 cells. Where the call is inconclusive, the potency comes from a doubtful curve fit. A structure can be active in one record and inactive in another.

assay: qHTS for Inhibitors of binding or entry into cells for Lassa Virus; settings: Lassa virus pseudotype entry inhibition, cell reporter; activity change, negative = inhibition: at 37.9 µM (top of the series) unless noted; note: nearly all actives have a fitted effect of over 50% in size
% is set by controls: 0 for no effect and ±100 for the full control effect; potency is the fitted concentration of half-maximal effect.

Compound | Potency | activity change, negative = inhibition
CC(=O)c1ccc(N2CCN(C(=O)c3ccc(-c4ccccc4)cc3)CC2)cc1 | inconclusive: 35.5 µM [inhibitor, single point] | –
COc1ccccc1/C=N/OC(=O)c1ccc(C)cc1 | inconclusive: 14.1 µM [inhibitor, partial curve, poor fit] | –
O=C(Cn1cncc1-c1ccc([N+](=O)[O-])cc1)Nc1ccccc1F | inconclusive: 3.98 µM [inhibitor, partial curve, poor fit] | –
O=C1CC(c2cccs2)Cc2nc(NCC3CCCO3)ncc21 (stereo not drawn) | inconclusive: 1.83 µM [inhibitor, partial curve, poor fit] | –
CCOc1ccc(/C=C/C(=O)Nc2sc3c(c2C(=O)OC)C(C(=O)OC)CC3)cc1 (stereo not drawn) | inconclusive: 6.31 µM [inhibitor, single point] | –
COC(=O)c1cc(-c2ccc(Br)cc2)n[nH]1 | – | inactive: 5.28%
Cc1ccc(C)c(C(=O)CN2C(=O)c3ccccc3S2(=O)=O)c1 | inconclusive: 7.3 µM [inhibitor, partial curve, poor fit] | –
Cc1nc(-c2ccc(S(=O)(=O)Nc3ccc(C#N)cc3)cc2)co1 | – | inactive: 4.33% [at 46.1 µM]
O=c1[nH]c2ccccc2n1C1CCN(CCCC(c2ccc(F)cc2)c2ccc(F)cc2)CC1 | inactive and active: 10.3 µM | –
Cc1ccc(-c2nn(C)c(=O)c3ccccc23)cc1CNC(=O)/C=C/c1ccccc1 | active: 20.6 µM | –
Cc1ccc(-n2c(SCC(=O)N3CCCc4ccccc43)nnc2-c2cccnc2)c(C)c1 | – | inactive: 8.4%
COc1ccc(OC)c(CN2CCN(CC(=O)Nc3ccccc3C(=O)NC3CC3)CC2)c1 | inconclusive: 39.8 µM [inhibitor, partial curve, poor fit] | –
O=C(N/N=C/c1ccc[nH]1)c1cccc(Br)c1 | inconclusive: 0.58 µM [inhibitor, partial curve, poor fit] | –
CN(C)c1cccc(C(=O)NNC(=O)CN2C(=O)C3CC=CCC3C2=O)c1 (stereo not drawn) | – | inactive: -23.9% [at 46.1 µM]
CCN1CCCc2cc(CN(CCN3CCOCC3)C(=S)Nc3cccc(C)c3)ccc21 | inconclusive: 5.62 µM [inhibitor, full curve, poor fit] | –
c1ccc(-c2ncc(-c3ccn[nH]3)s2)cc1 | inconclusive: 35.5 µM [inhibitor, single point] | –
CCNC(=O)C/C(C)=N/NC(=O)C12CC3CC(CC(C3)C1)C2 | inconclusive: 11.2 µM [activator, partial curve, poor fit] | –
O=C1c2ccccc2-c2nc3ccccc3nc21 | – | inactive: 26.1%
Cc1ccc(-n2ncc(C(=O)NCCc3ccccc3)c2C2CCN(C(=O)OC(C)(C)C)CC2)c(C)c1 | inconclusive: 28.2 µM [inhibitor, partial curve, poor fit] | –
COc1cccc(N(C(=O)c2sc(C)nc2C)C(C(=O)NCC2CCCO2)c2ccccc2)c1 (stereo not drawn) | inconclusive: 35.5 µM [inhibitor, single point] | –
COC(=O)c1ccc(CN2CCc3ccc(NC(=O)c4ccncc4)cc3C2)cc1 | – | inactive: -16.5%
Cc1ccsc1/C=C/C1=Cc2c(sc(NC(=O)CSc3n[nH]c(N)n3)c2C#N)C(C)(C)C1 | inconclusive: 13 µM [inhibitor, single point] | –

Taken from above:
`Cc1nc(-c2ccc(S(=O)(=O)Nc3ccc(C#N)cc3)cc2)co1` | activity change, negative = inhibition: inactive: 4.33% [at 46.1 µM]
`Cc1ccsc1/C=C/C1=Cc2c(sc(NC(=O)CSc3n[nH]c(N)n3)c2C#N)C(C)(C)C1` | Potency: inconclusive: 13 µM [inhibitor, single point]

The list goes on:

Compound | Potency | activity change, negative = inhibition
CCCCN1CN(Cc2ccco2)CNC1=S | inconclusive: 35.5 µM [inhibitor, single point] | –
CSc1sc(-c2n[nH]c(=S)n2C)c2c1C=CCC2 | inconclusive: 1.12 µM [inhibitor, partial curve, poor fit] | –
CC(C)(C)C(=O)N/C(N)=N/c1nc2ccccc2o1 | inconclusive: 35.5 µM [inhibitor, single point] | –
CCC(=O)Nc1cccc2ccccc12 | – | inactive: 19.2%
N#Cc1c(N2CCCC(O)C2)nc(N)c2c(N)nc3c(c12)CC(=O)N3C12CC3CC(CC(C3)C1)C2 (stereo not drawn) | active: 8.2 µM | –
CCN(CC)S(=O)(=O)c1ccc(N2CCOCC2)c(NC(=O)Cc2cccc3ccccc23)c1 | inconclusive: 32.6 µM [inhibitor, single point] | –
O=C(CSc1ccc(F)cc1)N1CCC(c2nc3ccccc3s2)CC1 | – | inactive: -11.4%
CCOC(=O)c1c(C)c(C(=O)Nc2ccc3c(c2)OCCO3)c(C)n1C | – | inactive: 1.69%
CCOc1ccc(C(CC(=O)O)NC(=O)c2ccco2)cc1OC (stereo not drawn) | – | inactive: 15.9%
CC1CC(C)CN(C(=O)CSc2ncnc3sccc23)C1 (stereo not drawn) | – | inactive: -4.09%
CC(C)=CC(=O)Nc1ccc2c(c1)OCO2 | inconclusive: 32.6 µM [inhibitor, single point] | –
O=C(O)CSCC(=O)c1ccccc1 | inconclusive: 32.6 µM [inhibitor, single point] | –
CN(C)Cc1c(O)ccc2c(-c3ccccc3)cc(=O)oc12 | inconclusive: 11.2 µM [activator, single point] | –
COc1ccc(/C=C(/NC(=O)c2ccccc2)c2nc3ccccc3[nH]2)cc1OC | inconclusive: 1.12 µM [inhibitor, partial curve] | –
Cc1ccc(CSc2nnc(-n3c(=O)c(C#N)cc4c(=O)n5cccc(C)c5nc43)s2)cc1 | inconclusive: 6.31 µM [inhibitor, single point] | –
O=c1oc2c(O)cccc2cc1-c1nc2ccccc2[nH]1 | inconclusive: 6.31 µM [inhibitor, full curve, poor fit] | –
Cc1csc2nc(SCC(=O)Nc3ccccc3F)[nH]c(=O)c12 | inconclusive: 12.6 µM [inhibitor, single point] | –
COC(=O)c1ccc(C(=O)NC2CCCc3c2cnn3-c2ccc(C)c(C)c2)cc1 (stereo not drawn) | inconclusive: 1.12 µM [inhibitor, single point] | –
COc1ccc(NC(=O)c2oc3ccccc3c2NC(=O)C2CCCO2)cc1OC (stereo not drawn) | inconclusive: 1 µM [activator, single point] | –
CN(C)c1ccc(/C=N/NC(=O)c2ccccn2)cc1 | inconclusive: 7.08 µM [inhibitor, full curve, poor fit] | –
CC(NC1CCCCC1)C(O)C12CC3CC(CC(C3)C1)C2 (stereo not drawn) | inconclusive: 23.1 µM [inhibitor, single point] | –
